Laboratory results as given in patent publication US20060165684A1 (published 2006).
Changes are numbered by the printed parent chain. Results are given in words; binding and its absence hold for the method and conditions named. Some results given as binding are weak or reduced against the parent protein; the word gives no strength. Blank lines part the entries; values can stand above or below the binder they belong to.

Biological target: T1, peptide 6 (TIRC7 derived peptide)
T1 sequence (peptide): DLPDASVNGWSSDE
Experiment: ELISA

- binding: binds
B1: chimeric Neliximab (antibody, V domains shown)
VH: EVQLQQSGPELVKPGASVKMSCKASGYTFTTYVMHWVKQKPGQGLEWIGYINPYNDGTNYNEKFKGKATLTSDKSSSTAYMELSTLTSEDSAVYYCAEFITKTVGGSNWYLDVWGAGTTVTVSS
VL: QIVLTQSPAIMSASPGEKVTMTCSASSSISYIHWFQQKPGTSPKRWIYDTSKLPSGVPARFSGSGSGTSYSLTISSMEAEDAATYYCHQRSSYTWTFGGGTKLEIKR
notes: Murine VH and VL joined to human gamma 1 (pConGamma1f vector) and human kappa (pConKappa vector) constant regions, made in NSO or CHO cells; also called chimeric antibody of clone 17-1; chimerized #17

- binding: binds
B2: murine Metiliximab (antibody, V domains shown)
VH: EVQLQQSGPELVKPGASVKMSCKASGYTFTSYVIHWVKQKPGQGLEWIGYINPYNYDTKYNEKFKGEATLTSDKSSNTAYMELSSLTSEDSAVYYCAGFFTRAVGGSYWYLDVWGAGTTVTVSS
VL: B1 VL with P54V, S76N, E80A, S92A, Y93S
notes: also called #9; Clone 9
